Source: PubChem BioAssay AID1259415 (National Center for Advancing Translational Sciences (NCATS), 2018)
In all, about 410,000 compounds went through this assay and about 18,000 (4.4%) were called active. The shares of active, inactive and inconclusive entries below differ from those in the screen. Cut-off read from the data, not from the text of the source: active = activity change below about -60%; inconclusive = no clear call, values can overlap the other calls; inactive = above about -39%.

Experiment: qHTS Assay for inhibitors of the human cytomegalovirus (HCMV)
Settings: HFF cells, HCMV-luciferase reporter, 72 h; at 57.5 µM; hits give low values
How it was run: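 Two compound doses tested in HFFs infected with HCMV-luciferase, MOI 1 PFU/cell, 72 h at 37C. Lysate luminescence read with OneGlo; data normalized against buffer-only and 10uM Salinomycin inhibitor controls.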
% is set by controls: 0 for no effect and ±100 for the full control effect.

Compound	activity change, negative = inhibition
Cc1c(CCC(=O)NCCCCCC(=O)O)c(=O)oc2c(C)c3oc4c(c3cc12)CCCC4	inconclusive: -46.3%
CCOc1ccc(C(=O)NC(=S)Nc2cccc(S(=O)(=O)NC3=NCCC3)c2)cc1	inactive: -16.8%
CCOC(=O)C1CCCN(C(=O)c2ccc3c(c2)NC(=O)C(N2CCOCC2)S3)C1 (configuration not stated)	inactive: 3.65%
COCCn1c(N)c(C(=O)NCc2cccs2)c2nc3ccccc3nc21	inconclusive: -52.5%
COc1ccc(-c2c(C#N)c(N)nc3sc(C(=O)c4ccccc4)c(N)c23)cc1	inconclusive: -53.6%
COc1ccc2c(c1)c1nnc(SC)nc1n2C	inactive: 95.9%
COc1ccc(-c2cc(C)no2)cc1S(=O)(=O)N1CCOc2ccc(Cl)cc21	inconclusive: -58%
Cc1ccc(/C=C/c2nc3ccccc3c(=O)n2CCc2ccccc2)cc1	inconclusive: -43.5%
CC(C)n1nnnc1C1c2ccccc2C(=O)N1Cc1cccnc1 (configuration not stated)	inactive: -15.5%
CCOc1ccc(S(=O)(=O)N2CCN(C(=S)NCC3CCCO3)CC2)cc1 (configuration not stated)	inconclusive: -42.8%
O=C1NCCN/C1=C\C(=O)c1cccc(Br)c1	inactive: 36.9%
COc1ccc(C(=O)OC(C)C(=O)NC(C)CCc2ccccc2)cc1[N+](=O)[O-] (configuration not stated)	inactive: -1.22%
O=C(Nc1ccncc1NC(=O)c1cccc([N+](=O)[O-])c1)c1cccc([N+](=O)[O-])c1	inactive: -27.9%
Cn1c(=O)c2ccccc2n(CC(=O)Nc2ccc3c(c2)OCCO3)c1=O	inconclusive: -59.1%
Cc1ccc(C(=O)N2CCN(C(=O)c3ccc(C)cc3)C2)cc1	inconclusive: -42.8%
Cc1ccc(SCC(=O)Nc2cccc(C)c2)cc1	inactive: -2.16%
C=CCn1c(C)cc(C(=O)COC(=O)/C=C/c2c(C)nn(C3CCS(=O)(=O)C3)c2Cl)c1C (configuration not stated)	inconclusive: -42%
COc1cc(N(Cc2ccccc2)Cc2ccccc2)c2ncn(C(C)C)c2c1	active: -87.1%
COc1ccc(C(=O)NC(C)c2ccccc2)cc1Br (configuration not stated)	inconclusive: -50.8%
O=C1C=C(NCCc2cc(Br)c(O)c(Br)c2)C(=O)c2ncccc21	active: -99.8%
CCOc1ncccc1C(=O)N1CCN(C(=O)c2ccccc2)CC1	inconclusive: -53.4%
COc1ccc(Nc2ccc(S(=O)(=O)N3CCCCC3)cc2[N+](=O)[O-])cc1OC	inconclusive: -48.8%

Compound	activity change, negative = inhibition
C=CCNc1nc(SCC=C)nc2ccsc12	inconclusive: -57.1%
Cc1ccc(-c2csc(NC(=O)c3ccc4c(=O)n5c(nc4c3)CCCCC5)n2)cc1	active: -66.4%
c1ccc(N2CCCCC2)c(Nc2nc3ccccc3n3cnnc23)c1	inconclusive: -41.7%
Cc1ccc2c(=O)cc(C(=O)NCc3ccccc3)oc2c1C	inconclusive: -42.7%
Cc1ccc(C)n1-c1ccc(N(C)C)cc1	inconclusive: -51.9%
COc1ccc(Cl)cc1NC(=O)c1sc2nc3c(cc2c1N)CN(C)CC3	inconclusive: -47.5%
Cc1ccc(-n2ncc3c(N4CCCCC4)ncnc32)cc1	active: -101%
CC(C)(C)C(=O)N1N=C(c2ccc(NS(C)(=O)=O)cc2)CC1c1cccs1 (configuration not stated)	inconclusive: -41.4%
Cc1cc(NC(=O)c2cc(-c3ccco3)on2)nn1Cc1ccc(Cl)cc1	inconclusive: -42.5%
Cn1cccc1/C=C1\C(=O)NC(=O)N(Cc2ccco2)C1=O	inconclusive: -55.2%
CCCC1=Nc2cc(C(=O)NCCCOCC)ccc2Sc2ccccc21	active: -81.7%
Cc1cc(C(=O)CSc2n[nH]c(N)n2)c(C)n1-c1ccc(F)cc1	inconclusive: -46.3%
COC[C@@H]1CCCN1[C@H]1CS(=O)(=O)N[C@@H]1COCc1ccccc1	inactive: -0.417%
Cc1cc(=O)n2[nH]c(-c3ccc(C(C)(C)C)cc3)cc2n1	active: -63.3%
OC(CNc1nc2ccccc2s1)c1ccccc1 (configuration not stated)	inconclusive: -48.8%
CC(NC(=O)/C(C#N)=C/c1ccc([N+](=O)[O-])o1)c1ccccc1 (configuration not stated)	active: -101%
Cc1cc(NC(=O)c2ccc(N3C(=O)C4C5C=CC(C5)C4C3=O)cc2)no1 (configuration not stated)	inconclusive: -47.3%
COC(=O)c1cccc(C(=O)N2CCCC(CNC(=O)c3ccccc3Cl)C2)c1 (configuration not stated)	inactive: -0.019%
O=C(NC12CC3CC(CC(C3)C1)C2)c1ccccc1O	inactive: -34.4%
Cc1ccccc1/C(N)=N/OC(=O)c1ccc(F)cc1	active: -90.2%
Cc1ccc2c(c1)C(C)(c1ccccc1)CC(C)(C)N2C(=O)c1ccc(F)cc1 (configuration not stated)	inconclusive: -45.9%
COc1ccccc1NCCC(=O)OCC(=O)NC1CC1	active: -83.1%

Compound	activity change, negative = inhibition
O=C(CCN1C(=O)c2ccccc2S1(=O)=O)Nc1cccc(F)c1	inconclusive: -41%
CCOC(=O)c1c(NC(=O)c2ccccc2N(C)S(=O)(=O)c2ccccc2)sc2c1CCCC2	inconclusive: -45.8%
Cc1nc(-c2ccccc2)sc1C1(C)CC(c2cccc([N+](=O)[O-])c2)=NO1 (configuration not stated)	inactive: 49%
Cc1ccc(C(=O)c2sc(Nc3ccc(F)cc3)nc2N)c(C)c1	inconclusive: -58.9%
COC(=O)c1ccc(NC(=S)NC(=O)c2cccnc2)cc1	inactive: 48.1%
COC(=O)c1scc(-c2ccc(C)cc2)c1S(=O)(=O)N1CCN(c2ccccc2F)CC1	inactive: -13.7%
O=C1/C(=C\c2ccc3c(c2)OCO3)CCC/C1=C/c1ccc2c(c1)OCO2	active: -89.2%
Cc1cc(Cl)n2ncc(-c3ccccc3)c2n1	inconclusive: -50.9%
CCOC(=O)c1cc(C)sc1NC(=O)CN1CCN(C(=O)C2CCCO2)CC1 (configuration not stated)	inconclusive: -54%
CC(C)CN(CC(C)C)S(=O)(=O)c1ccc(C(=O)Nc2sc3c(c2C(N)=O)CCN(C(C)C)C3)cc1	active: -81.9%
CCC(c1nnnn1C1CCCC1)N(Cc1cccs1)Cc1cc2cccc(C)c2[nH]c1=O (configuration not stated)	active: -63.3%
Cc1ccc(Cl)c(OCC(=O)Nc2ccc3c(c2)OCCO3)c1	inactive: 73.3%
C=C1C(=O)O[C@H]2C1CC[C@@](C)(O)C13C=CC(C)(C21)C1(C3)C(=O)O[C@@H]2C3C(C)=CCC3[C@](C)(O)C[C@H](OC(C)=O)C21 (some centres not stated)	active: -90.3%
CC1(C(=O)Nc2ccc(Cl)c(Cl)c2)CCN1C(=O)C1CCCCC1 (configuration not stated)	inactive: -16.7%
CCOC(=O)c1cnn(-c2cc(Oc3ccccc3C)ncn2)c1N	inconclusive: -41.4%
CCOC(=O)C1(c2ccccc2)CCN(CCC(C#N)(c2ccccc2)c2ccccc2)CC1	active: -85.7%
c1ccc(-c2nnc(-c3ccccn3)nc2NC2CCCCC2)cc1	active: -100%
CCN1CCN(CCCNC(=O)c2cnn(-c3ccc(OC)cc3)c2C2CCN(C(=O)OC(C)(C)C)CC2)CC1	inconclusive: 0%
C=CCNC(=O)c1onc(CSc2ccccc2C)c1C(=O)O	inconclusive: -41.3%
Cc1[nH]c2ccccc2c1/C=N/Nc1ccccc1[N+](=O)[O-]	inactive: 0%
Cc1cc(C(=O)NN=C(Cc2ccccc2)Cc2ccccc2)c(C)o1	inconclusive: -45.8%
COc1cc(/C=N/OCC(=O)NC23CC4CC(CC(C4)C2)C3)ccc1OCc1ccccc1	inactive: 0.0736%

Sorted by molar mass (rising): some entries from above.
Compound	activity change, negative = inhibition
COC(=O)c1ccc(NC(=S)NC(=O)c2cccnc2)cc1	inactive: 48.1%
C=CCNC(=O)c1onc(CSc2ccccc2C)c1C(=O)O	inconclusive: -41.3%
CCOC(=O)C1(c2ccccc2)CCN(CCC(C#N)(c2ccccc2)c2ccccc2)CC1	active: -85.7%

No new results follow: 2 of the compounds above.
Compound	activity change, negative = inhibition
C=CCNC(=O)c1onc(CSc2ccccc2C)c1C(=O)O	inconclusive: -41.3%
Cc1[nH]c2ccccc2c1/C=N/Nc1ccccc1[N+](=O)[O-]	inactive: 0%

Going on with the list.

Compound	activity change, negative = inhibition
Cc1ccc(C(C(=O)NC(C)(C)C)N(Cc2cccs2)C(=O)c2ccc3c(c2)OCCO3)cc1 (configuration not stated)	inconclusive: -55.2%
CCOC(=O)c1c(C)nn(Cc2cccc(Cl)c2)c1N	inconclusive: -51.1%
Fc1ccc(CSc2nnc(-c3cc4c(s3)-c3ccccc3CC4)o2)cc1	inactive: 20.4%
CC(C)CCNC(=O)C1(c2cccs2)CCOCC1	inactive: 4.88%
CN1CCN(CCCNC(=O)CCN2C(=O)COc3ccccc32)CC1	inconclusive: 0%
COc1ccccc1CC(=O)N1CCN(c2ccccn2)CC1	active: -73.5%
O=C(NCC1CCCO1)c1sc2cc(Cl)ccc2c1Cl (configuration not stated)	inactive: 12.9%
COc1cccc(N2CCN(c3ncnc4c3[nH]c3ccc(F)cc34)CC2C)c1 (configuration not stated)	active: -97.1%
CC1CN(c2ccc(NC(=S)Nc3ccc(N4CC(C)OC(C)C4)cc3)cc2)CC(C)O1 (configuration not stated)	inconclusive: -44%
COc1ccc(CCNC(=O)Cn2c(=O)n(CC3CCCO3)c(=O)c3cc(OC)c(OC)cc32)cc1OC (configuration not stated)	inconclusive: -43.2%
Cc1c(O)ccc(NS(=O)(=O)c2ccccc2)c1C	inconclusive: -40.7%
CC(C)CCN1C(=O)c2ccccc2CC1(C)C(=O)NC1CCCCC1 (configuration not stated)	inactive: -19.5%
CCN(CC)S(=O)(=O)c1cccc(-c2nnc(SCCOc3ccccc3C)o2)c1	inconclusive: -40.8%
Cc1ccc(N2C(=S)NC3c4cc(Cl)ccc4OC2(C)C3C(=O)N(C)C)cc1 (configuration not stated)	inconclusive: -43.8%
COc1cccc(NC(=O)c2ccc3nc(Cc4ccccc4)oc3c2)c1	active: -93.7%
CC(C(=O)N(C)C1CCS(=O)(=O)C1)N1C(=O)/C(=C/c2ccco2)SC1=S (configuration not stated)	active: -93.1%
CCOP(=O)(CCP(=O)(OCC)OCC)OCC.C[CH2][Sn]([Cl])([Cl])[CH2]C	active: -101%
Cc1ccc(C(=O)Nc2cccc(C(F)(F)F)c2)cc1Nc1ncnc2nc[nH]c12	inconclusive: -43.7%
COC(=O)CCN(C(=O)C12CC3CC(CC(C3)C1)C2)c1ccccn1	inconclusive: -57%
C[C@@]12C(=O)Nc3ccc(F)cc3C(=O)N1[C@H]1c3cc(Br)ccc3OC[C@@H]1[C@@H]2c1ccccc1	active: -70.2%
